According to paper PMC6143631 (Nature Communications, 2018):
Numbering of substitutions follows the chain as printed. Results are given in words; binding and its absence hold for the method and conditions named. For some assays here: In cells and extracts the contact can be indirect. Some entries that bind do so weakly or less than the wild type. For some assays here: Sequences can lack the tags named with a protein.

T1: GFP-Paf1(L83S) (S. cerevisiae) (UniProt P38351)
T1 sequence: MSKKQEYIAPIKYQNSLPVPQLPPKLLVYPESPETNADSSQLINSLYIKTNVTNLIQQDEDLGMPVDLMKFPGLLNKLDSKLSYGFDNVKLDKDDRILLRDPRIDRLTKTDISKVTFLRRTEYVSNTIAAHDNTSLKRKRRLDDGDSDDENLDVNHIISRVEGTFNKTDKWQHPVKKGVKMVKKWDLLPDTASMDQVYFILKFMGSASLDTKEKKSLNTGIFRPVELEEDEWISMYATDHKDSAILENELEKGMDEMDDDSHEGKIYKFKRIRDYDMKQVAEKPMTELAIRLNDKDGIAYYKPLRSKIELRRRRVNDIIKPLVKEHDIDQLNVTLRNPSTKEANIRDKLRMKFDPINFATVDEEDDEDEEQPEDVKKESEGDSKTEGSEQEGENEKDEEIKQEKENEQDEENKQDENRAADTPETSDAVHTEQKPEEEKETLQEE

T2: GFP-Ctr9 (S. cerevisiae) (UniProt P89105)
T2 sequence: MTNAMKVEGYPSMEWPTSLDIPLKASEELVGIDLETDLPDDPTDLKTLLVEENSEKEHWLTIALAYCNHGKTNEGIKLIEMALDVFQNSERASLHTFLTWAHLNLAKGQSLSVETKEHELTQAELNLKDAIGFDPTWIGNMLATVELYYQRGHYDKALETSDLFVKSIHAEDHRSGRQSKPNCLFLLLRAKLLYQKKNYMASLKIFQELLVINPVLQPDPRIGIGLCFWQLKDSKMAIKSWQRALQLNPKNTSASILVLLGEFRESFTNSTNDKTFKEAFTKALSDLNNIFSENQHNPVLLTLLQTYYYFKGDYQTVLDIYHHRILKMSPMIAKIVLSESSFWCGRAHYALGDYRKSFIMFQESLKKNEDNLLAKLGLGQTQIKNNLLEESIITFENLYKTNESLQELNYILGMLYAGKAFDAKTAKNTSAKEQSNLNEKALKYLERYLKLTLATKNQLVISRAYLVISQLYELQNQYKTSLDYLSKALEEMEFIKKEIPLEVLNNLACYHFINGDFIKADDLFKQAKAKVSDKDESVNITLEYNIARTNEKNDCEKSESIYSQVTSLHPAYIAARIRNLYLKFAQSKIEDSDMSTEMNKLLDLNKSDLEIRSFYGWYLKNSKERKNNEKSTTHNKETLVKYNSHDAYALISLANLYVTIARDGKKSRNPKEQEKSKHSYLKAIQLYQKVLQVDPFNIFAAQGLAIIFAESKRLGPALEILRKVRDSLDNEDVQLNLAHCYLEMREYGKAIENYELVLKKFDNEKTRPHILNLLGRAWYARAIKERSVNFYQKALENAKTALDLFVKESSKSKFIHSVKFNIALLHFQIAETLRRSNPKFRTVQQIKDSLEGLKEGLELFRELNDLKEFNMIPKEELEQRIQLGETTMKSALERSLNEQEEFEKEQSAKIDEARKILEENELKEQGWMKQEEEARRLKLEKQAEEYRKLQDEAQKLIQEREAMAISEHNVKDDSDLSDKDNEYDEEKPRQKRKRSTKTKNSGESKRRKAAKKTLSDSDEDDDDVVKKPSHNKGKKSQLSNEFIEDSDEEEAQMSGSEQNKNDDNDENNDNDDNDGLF

T3: GFP-Paf1 (S. cerevisiae) (UniProt P38351)
T3 sequence: T1 sequence with S83L

T4: Ctr9^(1–313) (S. cerevisiae, UniProt P89105 1-313)
T4 construct: In the crystal it stood as part of the single-chain fusion m36; source: E. coli BL21(DE3) Codon Plus, co-expressed with a Paf1 fragment, purified (Ni-NTA, SEC)
T4 sequence (looked up): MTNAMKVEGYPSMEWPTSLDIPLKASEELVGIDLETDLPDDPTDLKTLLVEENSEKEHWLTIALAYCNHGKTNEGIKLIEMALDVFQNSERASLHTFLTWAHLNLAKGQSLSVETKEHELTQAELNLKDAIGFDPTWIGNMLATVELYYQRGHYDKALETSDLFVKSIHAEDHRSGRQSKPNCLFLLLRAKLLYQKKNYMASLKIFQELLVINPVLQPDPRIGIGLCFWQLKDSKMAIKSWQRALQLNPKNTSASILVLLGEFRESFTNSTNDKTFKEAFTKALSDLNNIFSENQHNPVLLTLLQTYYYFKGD

T5: Ctr9^(1–270) (S. cerevisiae, UniProt P89105 1-270)
T5 construct: S. cerevisiae Ctr9, residues 1-270
T5 sequence (looked up): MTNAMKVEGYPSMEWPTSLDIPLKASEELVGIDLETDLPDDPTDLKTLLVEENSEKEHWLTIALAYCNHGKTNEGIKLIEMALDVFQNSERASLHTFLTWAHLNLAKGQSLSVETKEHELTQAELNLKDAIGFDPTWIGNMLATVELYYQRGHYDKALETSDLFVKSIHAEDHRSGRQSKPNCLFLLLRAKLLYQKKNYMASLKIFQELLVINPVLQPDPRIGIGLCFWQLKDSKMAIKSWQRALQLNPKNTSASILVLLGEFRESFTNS

B1: Paf1^(34–103) (domain or fragment, S. cerevisiae, UniProt P38351 34-103, looked up)
chain: ETNADSSQLINSLYIKTNVTNLIQQDEDLGMPVDLMKFPGLLNKLDSKLLYGFDNVKLDKDDRILLRDPR
notes: In the crystal it stood as part of the single-chain fusion m36; source: E. coli BL21(DE3) Codon Plus, co-expressed with a Ctr9 fragment, purified (Ni-NTA, SEC)
B2: Myc-Cdc73 (protein, UniProt Q06697 1-393)
chain: MANSLDRLREHLKNGDKLVLKNNEGQSTDDITKATMVETLSSDGSTQDSFPLNEETEIEIDGSLVQLRIIVHCWMNKDSSAADYLADCQNKQLTNVSFLQRTDLINWLSGNTESSQYLKAPGQKGETSDKVDIENKTLAGELSTVKSTTSASLENDSEVSDPVVVETMKHERILVDHNSALRGAKPINFGYLIKDAELKLVQSIKGSLRGSKLPPGHKGAHGRISKTNGSSGGPRKDPIILIPSAASSILTVANIKQFLLESKYVNPRNLPSVPNGLVNIEKNFERISRPIRFIIVDNTRMFTKPEYWDRVVAIFTTGHTWQFNNYQWNSPQELFQRCKGYYFHFAGDSVPQHVQQWNVEKVELDKNKRFKDVEVVRYFWHSLEKELISRGYR
B3: Myc-Ctr9 (protein, UniProt P89105 1-1077)
chain: T2 sequence

Columns and labels:
[1] = biological target: T1, GFP-Paf1(L83S) (S. cerevisiae); assay: co-IP; HEK293T co-transfected with the yeast Paf1C subunits (GFP-Ctr9 or GFP-Paf1 as bait, the others Myc-tagged); agarose-conjugated anti-GFP, blot with anti-Myc
GFP-Ctr9 (S. cerevisiae) = biological target: T2, GFP-Ctr9 (S. cerevisiae); assay: as above
GFP-Paf1 (S. cerevisiae) = biological target: T3, GFP-Paf1 (S. cerevisiae); assay: as above
Ctr9^(1–313) [2] = biological target: T4, Ctr9^(1–313); assay: crystal structure; single-chain fusion Ctr9(1-313)-TEV segment-Paf1(34-103), Se-Met-substituted; 20 °C, 0.1 M Tris-HCl pH 8.5, 0.8 M lithium sulfate, 0.01 M nickel chloride; 2.53 Å; both purified
Ctr9^(1–270) = biological target: T5, Ctr9^(1–270); assay: SEC; two fragments co-expressed in E. coli and co-purified; analytical size-exclusion column with SDS-PAGE of the fractions; both purified
Ctr9^(1–313) [3] = biological target: T4, Ctr9^(1–313); assay: as above

| Molecule | binding [1] | binding (GFP-Ctr9 (S. cerevisiae)) | binding (GFP-Paf1 (S. cerevisiae)) | binding (Ctr9^(1–313) [2]) | binding (Ctr9^(1–270)) | binding (Ctr9^(1–313) [3]) |
| --- | --- | --- | --- | --- | --- | --- |
| 13×Myc-Rtf1 (from UniProt P53064 1-558) | binds | binds | binds | – | – | – |
| B1 | – | – | – | binds | binds | binds |
| B2 | binds | binds | binds | – | – | – |
| B3 | binds | – | binds | – | – | – |
